These results are taken from patent EP1171107B1, “USE OF A PHARMACEUTICAL COMPOSITION IN THE MANUFACTURE OF A MEDICAMENT FOR THE TREATMENT OF PATHOLOGICAL CONDITIONS OF THE EYE CAUSED BY BACTERIA, VIRUSES, FUNGI, YEASTS AND PROTOZOA” (Dr. GERHARD MANN chem.-pharm. Fabrik GmbH, priority 1999, dated 2000).

This assay deals with Alle Testkeime. In words: Overall assessment: time until all test germs are eliminated (count and enrichment). The class given is cell-based. Conditions: time after inoculation; all six test germs.

Where a name gives a salt, the structure may show the parent alone.

Regarding `O=C(O)c1cn(C2CC2)c2cc(N3CCNCC3)c(F)cc2c1=O` [Ciprofloxacin HCl 0,35 Gew.-%, Ciprofloxacin HCl, reference compound], the “Testkeime nach Inokulation der Zubereitung auch qualitativ nicht mehr nachweisbar” value is listed as 24 Stunden.
